The M2OR odorant receptor database
This is a selection; strong and weak results do not stand in their true shares. The calls were merged from several studies; some rest on single wells.

Legend:
Details in all cases: stereoisomer not certain
OR10G8 (Homo sapiens) = molecular target: T1, OR10G8 (Homo sapiens) (UniProt Q8NGN5)
T1 sequence (whole entry): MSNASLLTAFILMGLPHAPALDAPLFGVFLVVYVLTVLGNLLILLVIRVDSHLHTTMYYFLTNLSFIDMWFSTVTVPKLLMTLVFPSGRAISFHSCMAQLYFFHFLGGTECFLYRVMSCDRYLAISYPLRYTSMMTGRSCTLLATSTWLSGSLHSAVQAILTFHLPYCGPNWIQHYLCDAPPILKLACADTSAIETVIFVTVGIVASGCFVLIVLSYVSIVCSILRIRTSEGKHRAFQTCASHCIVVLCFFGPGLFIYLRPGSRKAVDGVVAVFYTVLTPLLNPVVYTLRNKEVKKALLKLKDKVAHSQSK
In short: (§1)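 Values were gathered from published papers (main text and supplementary material), with extra details requested from the original authors when needed, and checked for typos and inconsistencies. Each receptor–molecule pair is called responsive (active) if the original authors judged the measured signal statistically different from baseline, and non-responsive (inactive) otherwise. Assay methods varied by source, often transient mammalian cell-line luciferase assays. Recorded details include cell line, G-protein, co-transfected protein and tags.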

OR10H1 (Homo sapiens) = molecular target: T2, OR10H1 (Homo sapiens) (UniProt Q9Y4A9)
T2 sequence (whole entry): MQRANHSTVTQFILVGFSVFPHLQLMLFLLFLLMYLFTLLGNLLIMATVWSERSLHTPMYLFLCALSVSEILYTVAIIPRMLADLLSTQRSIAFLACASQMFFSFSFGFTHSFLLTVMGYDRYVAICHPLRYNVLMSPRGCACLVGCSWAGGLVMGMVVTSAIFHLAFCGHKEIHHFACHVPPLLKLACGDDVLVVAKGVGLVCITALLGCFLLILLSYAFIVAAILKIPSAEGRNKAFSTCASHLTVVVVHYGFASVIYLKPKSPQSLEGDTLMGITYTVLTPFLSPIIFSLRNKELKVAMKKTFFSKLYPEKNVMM
In short: as §1

OR10H3 (Homo sapiens) = molecular target: T3, OR10H3 (Homo sapiens) (UniProt O60404)
T3 sequence (whole entry): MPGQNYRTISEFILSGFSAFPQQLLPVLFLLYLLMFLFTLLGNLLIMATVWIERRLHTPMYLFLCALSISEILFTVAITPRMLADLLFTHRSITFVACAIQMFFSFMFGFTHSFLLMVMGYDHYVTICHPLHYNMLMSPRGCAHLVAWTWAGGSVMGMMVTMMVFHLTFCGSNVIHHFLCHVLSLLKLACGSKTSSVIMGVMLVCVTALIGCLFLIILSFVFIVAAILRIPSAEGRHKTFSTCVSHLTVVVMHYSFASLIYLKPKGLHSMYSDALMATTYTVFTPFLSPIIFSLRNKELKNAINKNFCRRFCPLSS
In short: as §1

OR10H4 (Homo sapiens) = molecular target: T4, OR10H4 (Homo sapiens) (UniProt Q8NGA5)
T4 sequence (whole entry): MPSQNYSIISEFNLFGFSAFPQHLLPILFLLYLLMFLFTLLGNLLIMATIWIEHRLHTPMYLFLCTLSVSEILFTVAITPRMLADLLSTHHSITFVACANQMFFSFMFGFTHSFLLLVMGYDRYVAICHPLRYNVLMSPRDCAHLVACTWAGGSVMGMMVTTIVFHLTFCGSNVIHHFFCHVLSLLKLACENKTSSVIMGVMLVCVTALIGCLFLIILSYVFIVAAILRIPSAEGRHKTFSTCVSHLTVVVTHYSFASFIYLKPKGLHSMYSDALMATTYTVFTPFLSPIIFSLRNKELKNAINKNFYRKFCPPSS
In short: as §1

OR10J5 (Homo sapiens) = molecular target: T5, OR10J5 (Homo sapiens) (UniProt Q8NHC4)
T5 sequence (whole entry): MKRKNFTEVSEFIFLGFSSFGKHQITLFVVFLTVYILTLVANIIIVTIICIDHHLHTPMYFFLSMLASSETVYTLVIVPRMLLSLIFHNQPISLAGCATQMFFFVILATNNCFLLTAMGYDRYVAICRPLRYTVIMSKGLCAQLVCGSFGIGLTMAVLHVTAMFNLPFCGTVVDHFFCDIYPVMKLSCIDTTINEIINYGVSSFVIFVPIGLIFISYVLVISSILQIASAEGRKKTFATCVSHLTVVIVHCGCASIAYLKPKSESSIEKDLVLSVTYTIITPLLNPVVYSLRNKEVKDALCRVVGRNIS
In short: as §1

| SMILES | odorant receptor agonist call (OR10G8 (Homo sapiens)) | odorant receptor agonist call (OR10H1 (Homo sapiens)) | odorant receptor agonist call (OR10H3 (Homo sapiens)) | odorant receptor agonist call (OR10H4 (Homo sapiens)) | odorant receptor agonist call (OR10J5 (Homo sapiens)) |
| --- | --- | --- | --- | --- | --- |
| CC1=CCC(C(C)(C)O)CC1 (stereo not given) | inactive | inactive | inactive | inactive | inactive |
| COC(=O)c1ccccc1O | inactive | inactive | inactive | inactive | inactive |
| CC(C)(O)CCCC1=CCC(C=O)CC1 (stereo not given) |  |  |  |  | active |
| C=CCc1ccc(OC)c(OC)c1 | inactive | inactive | inactive | inactive | inactive |
| O=CCc1ccccc1 | inactive | inactive | inactive | inactive | inactive |
| CCCCCC(C)=O | inactive | inactive | inactive | active | inactive |
| CCC1(O)C2(C)CCC(C2)C1(C)C (stereo not given) | inactive | inactive | inactive | inactive | inactive |
| CC(C)CCC(=O)O | inactive | inactive | inactive | inactive | inactive |
| CC(=O)C(C)=O | inactive | inactive | inactive | inactive | inactive |
| COc1cc(C)ccc1O | inactive | inactive | inactive | inactive | inactive |
| CC(=O)c1ccccc1 | inactive | inactive | inactive | inactive | inactive |
| CCCCO | inactive | inactive | inactive | inactive | inactive |
| CCCCCCCOC(C)=O | inactive | inactive | inactive | inactive | inactive |
| CCCCCCCCCCC=O | inactive | inactive | inactive | inactive | inactive |
| O=C1CCCCC1 | inactive | inactive | inactive | inactive | inactive |
| CCCCCOC(C)=O | inactive | inactive | inactive | inactive | inactive |
| CC(C)CC(=O)O | inactive | inactive | inactive | inactive | inactive |
| C=C(C)C1CC=C(C)C(=O)C1 (stereo not given) |  |  |  |  | inactive |
| CC(C)C=O | inactive | inactive | inactive | inactive | inactive |
| CC(C)=CCCC(C)=CC=O | inactive | inactive | inactive | inactive | inactive |
| CCCCCCC=O |  |  |  |  | inactive |
| COC(=O)c1ccccc1 | inactive | inactive | inactive | inactive | inactive |
| CCCCCCOC(=O)CCC | inactive | inactive | inactive | inactive | inactive |
| CC(=O)OC1CC2CCC1(C)C2(C)C (stereo not given) | inactive | inactive | inactive | inactive | inactive |
| C=CCc1ccc(OC(C)=O)c(OC)c1 | inactive | inactive | inactive | inactive | inactive |
| CCCCCCCCC=O | active |  |  |  | inactive |
| CC1=NC(C)SC1C (stereo not given) | inactive | inactive | inactive | inactive | inactive |
| CCC=CCCO | inactive | inactive | inactive | inactive | inactive |
| CCCCCCCCCC=O | inactive | inactive | inactive | inactive | inactive |

Exported bar-delimited: part of the list above
SMILES | odorant receptor agonist call (OR10G8 (Homo sapiens)) | odorant receptor agonist call (OR10H1 (Homo sapiens)) | odorant receptor agonist call (OR10H3 (Homo sapiens)) | odorant receptor agonist call (OR10H4 (Homo sapiens)) | odorant receptor agonist call (OR10J5 (Homo sapiens))
CC1=CCC(C(C)(C)O)CC1 (stereo not given) | inactive | inactive | inactive | inactive | inactive
COC(=O)c1ccccc1O | inactive | inactive | inactive | inactive | inactive
